Values from PubChem BioAssay AID1259405 (NCATS, 2018)

Screen: 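Mouse-designed siRNAs used to find CHO productivity engineering targets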 (primary screen)
Cells: Chinese hamster CHO-K1 ovary cells with stable secreted eGFP expression
Reagents: single siRNA against mouse genes, 0.8 pmol siRNA per well (2 µl of 400 nM stock)
Duration: 3 days
Read-out: 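Per-well intracellular GFP measured by laser scanning cytometry, plus viability from ATP luminescence, each relative to plate median of non-targeting control wells, in %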
Direction: GFP, % of control: higher = more GFP per well, higher productivity; viability (ATP), % of control: higher = more viable cells (more ATP)
Active means: 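a knock-down is called active if GFP reaches 120% or more of non-targeting control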
The deposit covers about 50,000 reagents; shown is an unselected part. About 4,000 of them (8%) count as active. 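Mouse siRNA library applied to hamster cells; one well for each siRNA.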 A number with no mark means an inactive call. Reagents against one gene are numbered here.

no.	gene symbol	siRNA no.	GFP, % of control	viability (ATP), % of control
1	Or6k14 (GeneID 259162)	1	86.3	25.6
2	Or6k14 (GeneID 259162)	2	64.3	81.6
3	Or6k14 (GeneID 259162)	3	44.9	41.6
4	Clasp2 (GeneID 76499)	1	91.4	83.3
5	Clasp2 (GeneID 76499)	2	87	90.1
6	Clasp2 (GeneID 76499)	3	109	91.7
7	Tafa2 (GeneID 268354)	1	99.5	87.5
8	Tafa2 (GeneID 268354)	2	69.4	79.4
9	Tafa2 (GeneID 268354)	3	60	52.7
10	Ptprj (GeneID 19271)	1	87.7	95.5
11	Ptprj (GeneID 19271)	2	98.2	77.6
12	Ptprj (GeneID 19271)	3	106	90.1
13	Mob3b (GeneID 214944)	1	99.3	87.3
14	Mob3b (GeneID 214944)	2	121 (active)	81.1
15	Pla2g2e (GeneID 26970)	1	97.8	77.3
16	Pla2g2e (GeneID 26970)	2	77	55.2
17	Pla2g2e (GeneID 26970)	3	61.4	62.1
18	Rbms2 (GeneID 56516)	1	55.1	65.4
19	Rbms2 (GeneID 56516)	2	73.4	82
20	Mta3 (GeneID 116871)	1	51.8	68.9
21	Mta3 (GeneID 116871)	2	93.6	81.9
22	Mta3 (GeneID 116871)	3	61.8	69.9
23	Ankrd16 (GeneID 320816)	1	94.8	64
24	Ankrd16 (GeneID 320816)	2	36.3	50.2
25	Ankrd16 (GeneID 320816)	3	92.7	56.8
26	Rpl23a (GeneID 268449)	1	57.7	35.1
27	Rpl23a (GeneID 268449)	2	53.1	95.8
28	Rpl23a (GeneID 268449)	3	82.1	73.7
29	Mob3c (GeneID 100465)	1	81.1	78.7
30	Mob3c (GeneID 100465)	2	64.1	69.7
31	Mob3c (GeneID 100465)	3	98	108
32	Acaca (GeneID 107476)	1	70.6	66.8
33	Acaca (GeneID 107476)	2	75.6	57.4
34	Acaca (GeneID 107476)	3	73.7	86.6
35	Cdh15 (GeneID 12555)	1	78.3	77.1
36	Cdh15 (GeneID 12555)	2	80.6	75.6
37	Cdh15 (GeneID 12555)	3	79.4	70.8
38	Seh1l (GeneID 72124)	1	93.7	79.3
39	Seh1l (GeneID 72124)	2	22	10.9
40	Seh1l (GeneID 72124)	3	72.5	77.3
41	Psmd13 (GeneID 23997)	1	109	70.2
42	Psmd13 (GeneID 23997)	2	109	64
43	Psmd13 (GeneID 23997)	3	63.9	56.9
44	Gbp3 (GeneID 55932)	1	92.2	56.4
45	Gbp3 (GeneID 55932)	2	54.6	81.4
46	Gbp3 (GeneID 55932)	3	42.9	46.8
47	Xrn1 (GeneID 24127)	1	71.5	81.8
48	Xrn1 (GeneID 24127)	2	79.3	82.8
49	Xrn1 (GeneID 24127)	3	176 (active)	110
50	Atcay (GeneID 16467)	1	34	18.5
51	Atcay (GeneID 16467)	2	71.7	80.7
52	Atcay (GeneID 16467)	3	92.6	95.4

Not a retest: entries from further up.
no.	gene symbol	siRNA no.	GFP, % of control	viability (ATP), % of control
41	Psmd13 (GeneID 23997)	1	109	70.2
42	Psmd13 (GeneID 23997)	2	109	64
43	Psmd13 (GeneID 23997)	3	63.9	56.9
44	Gbp3 (GeneID 55932)	1	92.2	56.4
45	Gbp3 (GeneID 55932)	2	54.6	81.4
46	Gbp3 (GeneID 55932)	3	42.9	46.8
47	Xrn1 (GeneID 24127)	1	71.5	81.8

Next records:
no.	gene symbol	siRNA no.	GFP, % of control	viability (ATP), % of control
53	Oaz3 (GeneID 53814)	1	86.6	96.9
54	Oaz3 (GeneID 53814)	2	88.2	67.1
55	Il36a (GeneID 54448)	1	49.9	63.9
56	Il36a (GeneID 54448)	2	61.1	61.6
57	Il36a (GeneID 54448)	3	45.6	38.6
58	Dnaaf6rt (GeneID 74708)	1	23.4	67.1
59	Dnaaf6rt (GeneID 74708)	2	52.9	74.7
60	Dnaaf6rt (GeneID 74708)	3	46.9	85.9
61	Ttyh2 (GeneID 117160)	1	66	33.8
62	Ttyh2 (GeneID 117160)	2	122 (active)	67.1
63	Ttyh2 (GeneID 117160)	3	114	103
64	A230083G16Rik (GeneID 442825)	1	101	81
65	A230083G16Rik (GeneID 442825)	2	78.3	49.7
66	A230083G16Rik (GeneID 442825)	3	43.5	59.1
67	Zcchc13 (GeneID 75064)	1	25.5	66.1
68	Zcchc13 (GeneID 75064)	2	83.9	81.2
69	Zcchc13 (GeneID 75064)	3	44.9	52.1
70	Krcc1 (GeneID 57896)	1	75.2	57
71	Krcc1 (GeneID 57896)	2	55.8	70.3
72	Krcc1 (GeneID 57896)	3	54	89.2
73	Slc38a1 (GeneID 105727)	1	88.6	58.1
74	Slc38a1 (GeneID 105727)	2	51.2	62.1
75	Slc38a1 (GeneID 105727)	3	91.8	78.6
76	Ckmt1 (GeneID 12716)	1	78.4	72.4
77	Grm8 (GeneID 14823)	1	79.2	88.7
78	Grm8 (GeneID 14823)	2	71.8	71.3
79	Grm8 (GeneID 14823)	3	62.6	65.6
80	Kcnq1 (GeneID 16535)	1	82	90.9
81	Kcnq1 (GeneID 16535)	2	40.9	55.1
82	Kcnq1 (GeneID 16535)	3	61.8	76.2
83	Abcc6 (GeneID 27421)	1	82.4	86.5
84	Abcc6 (GeneID 27421)	2	40.2	44.4
85	Abcc6 (GeneID 27421)	3	96.3	83
